Among the data in article PMC11233569 are binding values, retold here.

Sequences of proteins named here, by UniProt entry; tags and fusion partners are left off.
UniProt Q15629: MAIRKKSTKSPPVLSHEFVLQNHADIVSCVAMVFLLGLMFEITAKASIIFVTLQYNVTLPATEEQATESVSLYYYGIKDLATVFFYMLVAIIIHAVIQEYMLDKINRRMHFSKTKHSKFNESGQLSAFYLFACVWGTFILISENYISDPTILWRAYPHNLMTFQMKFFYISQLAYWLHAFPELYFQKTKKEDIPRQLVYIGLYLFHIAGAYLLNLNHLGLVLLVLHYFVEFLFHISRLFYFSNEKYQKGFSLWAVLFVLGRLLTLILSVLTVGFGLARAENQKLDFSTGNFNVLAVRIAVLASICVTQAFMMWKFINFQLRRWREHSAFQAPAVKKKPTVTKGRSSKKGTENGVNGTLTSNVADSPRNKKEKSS

No constants are given. Whether binding was seen depends on the method and setting. Binding seen in cells or lysates may run through a third protein. A yes stands for co-enrichment or nearness to the bait. Other partners may have been found.

This assay deals with T1, endogenous TREX1 (three-prime repair exonuclease 1) (human (endogenous in NP cells)) (UniProt Q9NSU2).
T1 sequence: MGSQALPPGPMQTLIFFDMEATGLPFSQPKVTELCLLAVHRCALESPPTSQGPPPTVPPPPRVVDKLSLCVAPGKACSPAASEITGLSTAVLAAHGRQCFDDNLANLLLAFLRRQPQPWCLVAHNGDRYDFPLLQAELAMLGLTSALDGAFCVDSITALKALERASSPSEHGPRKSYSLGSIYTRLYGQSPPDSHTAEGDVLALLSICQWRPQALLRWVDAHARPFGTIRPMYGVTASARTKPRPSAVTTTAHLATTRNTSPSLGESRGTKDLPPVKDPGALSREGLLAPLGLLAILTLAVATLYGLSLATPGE
In words: affinity purification with mass spectrometry; IP of endogenous TREX1 with an anti-TREX1 antibody or control antibody from lysates of normal (passage 2) and senescent (passage 8) human NP cells, NP-40 lysis; eluate separated by SDS-PAGE, trypsin digest, LC-MS (Orbitrap Fusion Lumos).

Consider “endogenous translocating chain-associating membrane protein 1 (TRAM1) (from UniProt Q15629 1-374)”, for which the binding result was “binds”.
